Drawing on article PMC6740040, this text covers binding for one substance.

By UniProt entry, the sequences of proteins in these tests, tags left out.
UniProt P53396: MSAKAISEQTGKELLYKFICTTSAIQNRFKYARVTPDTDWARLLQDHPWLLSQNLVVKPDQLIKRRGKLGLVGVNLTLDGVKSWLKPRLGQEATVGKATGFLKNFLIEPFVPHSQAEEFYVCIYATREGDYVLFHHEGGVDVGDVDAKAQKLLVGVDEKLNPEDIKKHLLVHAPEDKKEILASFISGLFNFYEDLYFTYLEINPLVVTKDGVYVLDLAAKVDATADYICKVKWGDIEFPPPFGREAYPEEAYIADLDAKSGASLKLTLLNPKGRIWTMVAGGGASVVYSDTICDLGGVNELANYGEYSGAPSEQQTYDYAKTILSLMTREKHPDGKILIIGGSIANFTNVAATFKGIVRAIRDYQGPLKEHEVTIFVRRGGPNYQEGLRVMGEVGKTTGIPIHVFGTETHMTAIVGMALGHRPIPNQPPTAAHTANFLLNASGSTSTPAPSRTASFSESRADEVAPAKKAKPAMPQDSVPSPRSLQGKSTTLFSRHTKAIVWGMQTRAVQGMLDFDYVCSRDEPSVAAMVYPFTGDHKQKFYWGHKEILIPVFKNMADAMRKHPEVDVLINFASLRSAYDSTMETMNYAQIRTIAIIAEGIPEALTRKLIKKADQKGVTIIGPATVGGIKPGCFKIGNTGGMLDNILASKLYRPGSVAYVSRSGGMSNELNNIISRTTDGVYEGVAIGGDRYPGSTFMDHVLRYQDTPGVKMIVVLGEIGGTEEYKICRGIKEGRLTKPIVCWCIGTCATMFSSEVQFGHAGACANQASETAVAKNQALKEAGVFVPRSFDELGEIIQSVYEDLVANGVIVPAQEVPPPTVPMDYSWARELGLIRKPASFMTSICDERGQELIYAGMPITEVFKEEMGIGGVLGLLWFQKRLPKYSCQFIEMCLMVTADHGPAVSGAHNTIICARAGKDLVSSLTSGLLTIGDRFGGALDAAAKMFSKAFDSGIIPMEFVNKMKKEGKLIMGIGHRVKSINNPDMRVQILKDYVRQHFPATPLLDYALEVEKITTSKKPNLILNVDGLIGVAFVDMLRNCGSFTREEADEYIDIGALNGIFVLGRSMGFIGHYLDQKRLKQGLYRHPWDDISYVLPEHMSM
UniProt P35222: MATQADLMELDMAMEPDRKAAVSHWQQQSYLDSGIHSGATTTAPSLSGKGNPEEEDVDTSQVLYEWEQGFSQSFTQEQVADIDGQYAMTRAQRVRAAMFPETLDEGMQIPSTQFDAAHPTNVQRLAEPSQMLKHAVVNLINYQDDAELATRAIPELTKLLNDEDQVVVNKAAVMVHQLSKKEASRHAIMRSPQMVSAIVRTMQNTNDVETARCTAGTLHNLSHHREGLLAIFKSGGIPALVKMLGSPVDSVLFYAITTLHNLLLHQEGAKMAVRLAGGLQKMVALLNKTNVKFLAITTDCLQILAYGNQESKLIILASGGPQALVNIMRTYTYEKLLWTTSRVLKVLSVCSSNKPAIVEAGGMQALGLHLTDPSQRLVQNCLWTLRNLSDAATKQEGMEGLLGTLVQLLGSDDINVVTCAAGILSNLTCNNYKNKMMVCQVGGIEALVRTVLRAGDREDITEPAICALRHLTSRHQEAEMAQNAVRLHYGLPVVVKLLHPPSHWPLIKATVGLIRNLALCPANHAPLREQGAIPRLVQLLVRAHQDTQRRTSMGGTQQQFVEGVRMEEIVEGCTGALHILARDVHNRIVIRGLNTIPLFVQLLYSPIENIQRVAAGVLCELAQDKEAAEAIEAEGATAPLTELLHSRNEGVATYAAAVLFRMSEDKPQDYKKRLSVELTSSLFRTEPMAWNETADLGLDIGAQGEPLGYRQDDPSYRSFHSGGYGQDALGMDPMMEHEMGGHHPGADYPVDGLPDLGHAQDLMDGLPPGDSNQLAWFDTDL

The target of assay [1] is ATP-citrate lyase (ACLY), endogenous (human (endogenous in HEK293T)) (UniProt P53396). Briefly: co-IP; endogenous: HEK293T cell extracts, anti-ACLY on protein A/G agarose (rabbit IgG as control), immunoblot with anti-CTNNB1.
Assay [2] addresses Flag-tagged ATP-citrate lyase (ACLY) (UniProt P53396). Briefly: co-IP; extracts of HEK293T cells transfected with Flag-ACLY for 48 h, anti-Flag M2 affinity gel at 4 °C for 3 h (mouse IgG as control), immunoblot with anti-CTNNB1.

Results are given in words; binding and its absence hold for the method and conditions named. In cells and extracts the contact can be indirect. Some entries that bind do so weakly or less than the wild type.

With “CTNNB1 (beta-catenin 1) protein (from UniProt P35222 1-781)”, the binding entry in assay [1] and in assay [2] was “binds” throughout.
